Numbering of substitutions follows the chain as printed. Names and notes keep the numbering of the source. No constants are given. Whether binding was seen depends on the method and setting. Some entries that bind do so weakly or less than the wild type. Tags and fused reporters may be left off the sequences shown.
What was measured:
Assay in all cases: two-hybrid; mammalian two-hybrid in HEK293 cells: VDR-VP16 with cofactor-GAL4 and the MH100(UAS)x4-tk-LUC reporter; cells treated with vehicle or increasing concentrations of 1,25(OH)2D3; luciferase normalised to β-galactosidase
[1] = biological target: corepressor NCoR, GAL4 fusion (NCoR-GAL4-pCMX) (UniProt Q60974)
[2] = biological target: retinoid X receptor alpha, GAL4 fusion (RXRα-GAL4-pCMX) (human) (UniProt P19793)
[3] = biological target: coactivator GRIP1, GAL4 fusion (GRIP1-GAL4-pCMX) (UniProt Q61026)

Chains of the proteins cited; added tags and fusions are not shown.
UniProt Q60974: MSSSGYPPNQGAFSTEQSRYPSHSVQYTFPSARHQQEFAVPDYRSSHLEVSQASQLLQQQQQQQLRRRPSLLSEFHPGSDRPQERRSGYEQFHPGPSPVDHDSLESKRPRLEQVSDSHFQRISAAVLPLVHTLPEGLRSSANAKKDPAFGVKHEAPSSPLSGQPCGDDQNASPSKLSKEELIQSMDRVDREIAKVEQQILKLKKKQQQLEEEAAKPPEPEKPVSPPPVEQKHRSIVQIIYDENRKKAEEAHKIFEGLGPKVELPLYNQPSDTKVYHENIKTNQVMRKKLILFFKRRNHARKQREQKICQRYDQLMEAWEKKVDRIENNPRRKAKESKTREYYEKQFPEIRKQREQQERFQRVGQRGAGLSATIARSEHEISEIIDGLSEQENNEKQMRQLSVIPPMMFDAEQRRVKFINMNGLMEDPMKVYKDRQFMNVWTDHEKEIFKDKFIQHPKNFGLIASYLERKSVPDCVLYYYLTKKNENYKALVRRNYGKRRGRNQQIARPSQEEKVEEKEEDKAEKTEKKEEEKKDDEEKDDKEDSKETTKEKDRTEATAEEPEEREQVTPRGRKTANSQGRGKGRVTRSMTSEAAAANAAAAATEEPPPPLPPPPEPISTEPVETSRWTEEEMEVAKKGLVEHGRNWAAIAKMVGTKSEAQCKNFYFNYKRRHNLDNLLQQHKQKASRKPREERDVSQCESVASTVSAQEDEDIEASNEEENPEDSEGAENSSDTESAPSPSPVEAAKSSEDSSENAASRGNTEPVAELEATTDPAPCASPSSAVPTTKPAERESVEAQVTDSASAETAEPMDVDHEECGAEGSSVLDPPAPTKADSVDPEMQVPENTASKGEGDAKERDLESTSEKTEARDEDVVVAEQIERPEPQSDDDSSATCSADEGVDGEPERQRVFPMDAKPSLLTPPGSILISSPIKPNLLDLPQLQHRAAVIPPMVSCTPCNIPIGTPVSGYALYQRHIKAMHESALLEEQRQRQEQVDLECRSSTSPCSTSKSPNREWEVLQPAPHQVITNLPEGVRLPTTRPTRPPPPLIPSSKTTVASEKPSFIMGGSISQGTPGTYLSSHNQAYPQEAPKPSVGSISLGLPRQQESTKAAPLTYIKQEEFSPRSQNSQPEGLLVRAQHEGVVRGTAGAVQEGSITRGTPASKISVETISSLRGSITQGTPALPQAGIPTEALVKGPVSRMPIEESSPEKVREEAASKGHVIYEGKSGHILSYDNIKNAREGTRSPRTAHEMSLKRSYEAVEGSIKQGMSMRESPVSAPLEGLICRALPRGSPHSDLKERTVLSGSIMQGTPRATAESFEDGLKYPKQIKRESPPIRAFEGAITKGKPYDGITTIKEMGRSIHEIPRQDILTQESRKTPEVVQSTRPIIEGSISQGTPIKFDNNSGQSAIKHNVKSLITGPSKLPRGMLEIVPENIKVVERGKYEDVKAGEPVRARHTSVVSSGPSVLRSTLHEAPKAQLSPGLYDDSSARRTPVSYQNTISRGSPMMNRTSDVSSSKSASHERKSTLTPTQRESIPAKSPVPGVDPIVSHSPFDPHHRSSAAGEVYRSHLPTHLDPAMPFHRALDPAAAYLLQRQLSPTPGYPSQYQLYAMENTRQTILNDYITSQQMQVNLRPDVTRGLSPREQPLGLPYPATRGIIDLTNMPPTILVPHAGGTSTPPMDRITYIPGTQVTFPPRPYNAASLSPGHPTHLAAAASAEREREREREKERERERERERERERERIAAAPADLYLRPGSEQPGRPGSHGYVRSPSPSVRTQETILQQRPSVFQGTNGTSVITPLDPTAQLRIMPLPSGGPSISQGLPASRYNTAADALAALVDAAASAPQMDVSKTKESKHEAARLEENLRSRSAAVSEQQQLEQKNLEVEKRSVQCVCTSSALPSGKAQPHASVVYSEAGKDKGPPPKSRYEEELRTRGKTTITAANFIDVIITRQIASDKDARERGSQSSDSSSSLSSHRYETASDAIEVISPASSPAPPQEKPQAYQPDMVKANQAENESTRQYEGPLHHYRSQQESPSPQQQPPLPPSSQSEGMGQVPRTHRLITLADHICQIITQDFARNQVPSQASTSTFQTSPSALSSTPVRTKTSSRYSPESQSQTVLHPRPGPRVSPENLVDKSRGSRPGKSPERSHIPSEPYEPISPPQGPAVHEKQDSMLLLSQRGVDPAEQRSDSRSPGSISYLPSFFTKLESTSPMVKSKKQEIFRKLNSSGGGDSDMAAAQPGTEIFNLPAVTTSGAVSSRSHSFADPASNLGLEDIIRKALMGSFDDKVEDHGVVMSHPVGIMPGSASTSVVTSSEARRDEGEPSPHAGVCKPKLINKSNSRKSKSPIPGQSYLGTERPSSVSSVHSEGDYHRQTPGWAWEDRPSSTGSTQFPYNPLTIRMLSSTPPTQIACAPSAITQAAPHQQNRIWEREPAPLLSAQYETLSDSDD
UniProt P19793: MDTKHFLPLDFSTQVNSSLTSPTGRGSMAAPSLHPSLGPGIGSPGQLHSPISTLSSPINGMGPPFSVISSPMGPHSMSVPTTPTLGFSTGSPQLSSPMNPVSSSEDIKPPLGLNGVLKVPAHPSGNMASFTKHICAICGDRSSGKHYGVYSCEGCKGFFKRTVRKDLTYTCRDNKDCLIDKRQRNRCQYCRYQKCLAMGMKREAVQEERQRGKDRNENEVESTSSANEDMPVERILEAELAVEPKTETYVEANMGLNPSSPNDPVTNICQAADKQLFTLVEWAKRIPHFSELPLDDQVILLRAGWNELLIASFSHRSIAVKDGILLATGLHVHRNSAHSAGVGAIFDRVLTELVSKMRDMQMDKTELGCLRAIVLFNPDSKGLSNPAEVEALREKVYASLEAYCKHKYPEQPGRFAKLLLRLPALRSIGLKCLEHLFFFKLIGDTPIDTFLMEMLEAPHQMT
UniProt Q61026: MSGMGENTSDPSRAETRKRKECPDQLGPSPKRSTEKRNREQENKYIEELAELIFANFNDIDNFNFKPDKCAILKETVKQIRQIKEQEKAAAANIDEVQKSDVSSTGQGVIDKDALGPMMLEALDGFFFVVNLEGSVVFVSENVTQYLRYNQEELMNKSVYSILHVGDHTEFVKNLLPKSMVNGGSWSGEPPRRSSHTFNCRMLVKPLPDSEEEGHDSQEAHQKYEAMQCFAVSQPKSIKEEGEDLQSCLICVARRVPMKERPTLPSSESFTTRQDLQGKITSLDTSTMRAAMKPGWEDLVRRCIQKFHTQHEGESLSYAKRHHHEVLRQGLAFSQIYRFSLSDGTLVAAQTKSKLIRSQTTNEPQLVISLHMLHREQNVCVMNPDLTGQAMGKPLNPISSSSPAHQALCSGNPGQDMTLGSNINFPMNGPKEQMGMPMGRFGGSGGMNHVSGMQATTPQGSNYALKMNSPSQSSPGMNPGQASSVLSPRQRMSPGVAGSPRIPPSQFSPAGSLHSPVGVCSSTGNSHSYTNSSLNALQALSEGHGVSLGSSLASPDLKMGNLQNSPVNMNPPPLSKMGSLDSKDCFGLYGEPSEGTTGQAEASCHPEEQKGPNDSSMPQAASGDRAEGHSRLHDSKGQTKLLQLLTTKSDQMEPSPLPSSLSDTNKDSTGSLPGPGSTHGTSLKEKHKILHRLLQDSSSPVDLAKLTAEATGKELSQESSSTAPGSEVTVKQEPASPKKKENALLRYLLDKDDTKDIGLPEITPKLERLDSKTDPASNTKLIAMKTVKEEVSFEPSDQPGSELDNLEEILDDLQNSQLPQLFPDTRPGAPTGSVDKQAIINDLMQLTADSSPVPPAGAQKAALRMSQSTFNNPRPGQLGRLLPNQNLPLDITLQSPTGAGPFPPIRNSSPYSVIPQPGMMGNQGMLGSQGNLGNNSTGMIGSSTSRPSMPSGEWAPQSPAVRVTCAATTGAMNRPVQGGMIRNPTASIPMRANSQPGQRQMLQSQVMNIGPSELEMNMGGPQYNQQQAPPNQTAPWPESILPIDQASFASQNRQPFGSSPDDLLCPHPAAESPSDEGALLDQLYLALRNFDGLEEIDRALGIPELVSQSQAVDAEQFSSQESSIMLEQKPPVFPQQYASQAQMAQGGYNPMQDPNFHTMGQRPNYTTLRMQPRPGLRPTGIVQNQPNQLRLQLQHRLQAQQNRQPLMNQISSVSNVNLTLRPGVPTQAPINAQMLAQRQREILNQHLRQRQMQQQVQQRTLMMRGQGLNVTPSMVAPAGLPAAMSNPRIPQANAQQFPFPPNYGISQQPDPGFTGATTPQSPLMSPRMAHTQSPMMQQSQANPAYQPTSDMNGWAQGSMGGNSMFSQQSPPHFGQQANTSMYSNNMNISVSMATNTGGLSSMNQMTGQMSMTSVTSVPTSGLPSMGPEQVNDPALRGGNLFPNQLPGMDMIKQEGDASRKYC

Measured: binding

B1: wild-type human vitamin D receptor, VP16 fusion (hVDR-VP16-pCMX) (receptor, UniProt P11473 1-427)
chain: MEAMAASTSLPDPGDFDRNVPRICGVCGDRATGFHFNAMTCEGCKGFFRRSMKRKALFTCPFNGDCRITKDNRRHCQACRLKRCVDIGMMKEFILTDEEVQRKREMILKRKEEEALKDSLRPKLSEEQQRIIAILLDAHHKTYDPTYSDFCQFRPPVRVNDGGGSHPSRPNSRHTPSFSGDSSSSCSDHCITSSDMMDSSSFSNLDLSEEDSDDPSVTLELSQLSMLPHLADLVSYSIQKVIGFAKMIPGFRDLTSEDQIVLLKSSAIEVIMLRSNESFTMDDMSWTCGNQDYKYRVSDVTKAGHSLELIEPLIKFQVGLKKLNLHEEEHVLLMAICIVSPDRPGVQDAALIEAIQDRLSNTLQTYIRCRHPPPGSHLLYAKMIQKLADLRSLNEEHSKQYRCLSFQPECSMKLTPLVLEVFGNEIS
binds: all assays above

B2: R370H-VDR, VP16 fusion (receptor, UniProt P11473 1-427)
chain: B1 chain with R370H
binds: all assays above

Reference: PMC5365159
